According to the supplement of paper PMC12823440, “Inhibitors supercharge kinase turnover through native proteolytic circuits” (Nature, 2025):
Counter-ions that a name gives are not always drawn. This is one part of the list. Hit calls seldom repeat between salt and free forms of one compound.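 Kinases, fused to nanoluciferase, were expressed in K562 cells; luminescence was measured every 4 h from 2 to 18 h as percent of control (DMSO = 100%, positive control = 0%). A time point is decreased if signal falls significantly (2 sigma). Hits were called by the authors by a rule that is not shown; the count of time points alone does not decide it.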

Sequences of proteins named here, by UniProt entry; tags and fusion partners are left off. A change or cut given only in a name is not applied to a line headed by its entry.
UniProt Q9Y616: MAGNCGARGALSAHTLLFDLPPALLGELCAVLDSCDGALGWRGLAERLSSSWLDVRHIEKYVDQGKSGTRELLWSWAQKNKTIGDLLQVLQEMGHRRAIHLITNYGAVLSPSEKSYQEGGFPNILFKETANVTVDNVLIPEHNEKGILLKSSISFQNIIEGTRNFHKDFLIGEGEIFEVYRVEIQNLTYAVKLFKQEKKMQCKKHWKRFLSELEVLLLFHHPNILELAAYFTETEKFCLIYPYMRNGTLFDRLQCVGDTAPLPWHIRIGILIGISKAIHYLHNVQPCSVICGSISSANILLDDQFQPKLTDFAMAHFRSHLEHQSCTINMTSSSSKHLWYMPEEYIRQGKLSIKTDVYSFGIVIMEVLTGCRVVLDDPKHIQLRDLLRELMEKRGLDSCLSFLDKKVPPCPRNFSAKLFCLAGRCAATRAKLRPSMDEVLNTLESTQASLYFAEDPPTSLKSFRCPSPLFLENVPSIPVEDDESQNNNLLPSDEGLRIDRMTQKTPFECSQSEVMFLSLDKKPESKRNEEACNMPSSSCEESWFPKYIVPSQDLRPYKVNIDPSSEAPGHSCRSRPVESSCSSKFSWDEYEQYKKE
UniProt P23458: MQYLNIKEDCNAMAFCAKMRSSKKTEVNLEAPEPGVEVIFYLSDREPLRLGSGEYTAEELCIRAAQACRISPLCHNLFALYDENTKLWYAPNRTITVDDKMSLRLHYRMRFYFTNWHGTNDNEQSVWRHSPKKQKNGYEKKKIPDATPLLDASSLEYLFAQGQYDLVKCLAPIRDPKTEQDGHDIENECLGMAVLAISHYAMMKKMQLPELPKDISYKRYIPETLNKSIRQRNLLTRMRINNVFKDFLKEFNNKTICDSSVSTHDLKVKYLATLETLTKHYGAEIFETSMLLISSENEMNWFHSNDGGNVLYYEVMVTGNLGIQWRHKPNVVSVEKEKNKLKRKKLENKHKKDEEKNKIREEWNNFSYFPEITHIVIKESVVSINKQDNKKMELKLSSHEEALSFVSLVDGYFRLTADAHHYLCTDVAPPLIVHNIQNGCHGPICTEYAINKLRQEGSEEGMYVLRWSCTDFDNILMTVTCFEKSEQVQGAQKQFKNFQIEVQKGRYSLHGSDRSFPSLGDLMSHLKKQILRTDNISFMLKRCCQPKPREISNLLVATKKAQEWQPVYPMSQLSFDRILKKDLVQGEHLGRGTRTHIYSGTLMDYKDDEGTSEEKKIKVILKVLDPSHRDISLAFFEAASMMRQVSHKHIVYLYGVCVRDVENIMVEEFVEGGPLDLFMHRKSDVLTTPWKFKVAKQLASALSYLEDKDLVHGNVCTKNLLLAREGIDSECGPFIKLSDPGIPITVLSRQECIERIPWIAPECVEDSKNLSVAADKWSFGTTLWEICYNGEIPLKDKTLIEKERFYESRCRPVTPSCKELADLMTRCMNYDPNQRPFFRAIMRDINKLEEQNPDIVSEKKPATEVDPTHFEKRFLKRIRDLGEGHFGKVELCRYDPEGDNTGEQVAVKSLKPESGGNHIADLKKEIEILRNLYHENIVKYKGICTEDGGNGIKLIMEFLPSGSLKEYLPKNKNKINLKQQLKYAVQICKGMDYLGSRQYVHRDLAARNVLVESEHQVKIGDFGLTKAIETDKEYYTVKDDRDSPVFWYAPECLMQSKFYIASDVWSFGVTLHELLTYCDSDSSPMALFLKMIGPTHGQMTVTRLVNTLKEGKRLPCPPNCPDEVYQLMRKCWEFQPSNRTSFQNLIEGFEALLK
UniProt P06239: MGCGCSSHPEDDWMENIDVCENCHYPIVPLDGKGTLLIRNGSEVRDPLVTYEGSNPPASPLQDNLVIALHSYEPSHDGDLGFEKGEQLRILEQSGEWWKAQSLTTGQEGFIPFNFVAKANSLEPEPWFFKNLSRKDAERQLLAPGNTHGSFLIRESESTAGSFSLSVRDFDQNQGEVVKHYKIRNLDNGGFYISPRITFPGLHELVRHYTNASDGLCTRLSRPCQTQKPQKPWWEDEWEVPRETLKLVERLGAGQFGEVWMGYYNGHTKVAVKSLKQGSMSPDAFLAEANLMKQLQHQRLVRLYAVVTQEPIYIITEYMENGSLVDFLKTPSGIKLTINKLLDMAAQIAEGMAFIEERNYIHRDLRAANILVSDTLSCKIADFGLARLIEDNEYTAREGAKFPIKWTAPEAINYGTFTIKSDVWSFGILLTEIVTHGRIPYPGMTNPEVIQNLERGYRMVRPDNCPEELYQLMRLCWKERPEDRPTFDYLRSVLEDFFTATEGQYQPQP
UniProt P53667: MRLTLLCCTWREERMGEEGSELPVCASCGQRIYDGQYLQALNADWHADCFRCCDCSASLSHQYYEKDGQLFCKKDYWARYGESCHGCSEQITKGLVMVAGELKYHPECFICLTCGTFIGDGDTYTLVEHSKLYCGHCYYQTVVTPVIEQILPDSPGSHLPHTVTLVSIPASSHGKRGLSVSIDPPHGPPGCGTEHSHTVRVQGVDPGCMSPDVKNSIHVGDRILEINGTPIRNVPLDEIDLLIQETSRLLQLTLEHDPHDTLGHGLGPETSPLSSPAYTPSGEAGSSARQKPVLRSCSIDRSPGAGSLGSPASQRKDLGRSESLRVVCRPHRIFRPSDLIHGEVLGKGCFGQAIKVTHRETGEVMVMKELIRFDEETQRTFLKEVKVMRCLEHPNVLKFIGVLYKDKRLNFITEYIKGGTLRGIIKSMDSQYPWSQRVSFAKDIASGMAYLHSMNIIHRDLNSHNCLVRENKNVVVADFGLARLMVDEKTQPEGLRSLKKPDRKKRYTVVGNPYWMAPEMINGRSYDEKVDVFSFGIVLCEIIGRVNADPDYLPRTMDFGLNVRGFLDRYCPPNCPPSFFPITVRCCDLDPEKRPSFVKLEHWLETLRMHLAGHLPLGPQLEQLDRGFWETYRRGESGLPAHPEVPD
UniProt P53671: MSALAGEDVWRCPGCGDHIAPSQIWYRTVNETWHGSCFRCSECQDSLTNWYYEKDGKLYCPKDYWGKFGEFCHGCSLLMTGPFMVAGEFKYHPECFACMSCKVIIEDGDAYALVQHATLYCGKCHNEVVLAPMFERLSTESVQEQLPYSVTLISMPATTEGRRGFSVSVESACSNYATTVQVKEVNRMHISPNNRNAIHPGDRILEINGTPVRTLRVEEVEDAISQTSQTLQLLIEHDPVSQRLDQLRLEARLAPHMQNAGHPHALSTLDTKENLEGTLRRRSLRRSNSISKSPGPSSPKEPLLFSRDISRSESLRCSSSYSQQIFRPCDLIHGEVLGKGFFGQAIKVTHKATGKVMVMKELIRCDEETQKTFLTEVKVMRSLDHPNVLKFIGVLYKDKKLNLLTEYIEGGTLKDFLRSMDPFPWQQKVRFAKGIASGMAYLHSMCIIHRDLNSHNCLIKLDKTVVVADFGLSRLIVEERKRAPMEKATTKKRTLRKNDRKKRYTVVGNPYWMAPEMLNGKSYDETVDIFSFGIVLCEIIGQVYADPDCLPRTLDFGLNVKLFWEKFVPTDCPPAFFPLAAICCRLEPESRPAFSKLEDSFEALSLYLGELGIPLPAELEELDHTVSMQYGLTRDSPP
UniProt Q8IWU2: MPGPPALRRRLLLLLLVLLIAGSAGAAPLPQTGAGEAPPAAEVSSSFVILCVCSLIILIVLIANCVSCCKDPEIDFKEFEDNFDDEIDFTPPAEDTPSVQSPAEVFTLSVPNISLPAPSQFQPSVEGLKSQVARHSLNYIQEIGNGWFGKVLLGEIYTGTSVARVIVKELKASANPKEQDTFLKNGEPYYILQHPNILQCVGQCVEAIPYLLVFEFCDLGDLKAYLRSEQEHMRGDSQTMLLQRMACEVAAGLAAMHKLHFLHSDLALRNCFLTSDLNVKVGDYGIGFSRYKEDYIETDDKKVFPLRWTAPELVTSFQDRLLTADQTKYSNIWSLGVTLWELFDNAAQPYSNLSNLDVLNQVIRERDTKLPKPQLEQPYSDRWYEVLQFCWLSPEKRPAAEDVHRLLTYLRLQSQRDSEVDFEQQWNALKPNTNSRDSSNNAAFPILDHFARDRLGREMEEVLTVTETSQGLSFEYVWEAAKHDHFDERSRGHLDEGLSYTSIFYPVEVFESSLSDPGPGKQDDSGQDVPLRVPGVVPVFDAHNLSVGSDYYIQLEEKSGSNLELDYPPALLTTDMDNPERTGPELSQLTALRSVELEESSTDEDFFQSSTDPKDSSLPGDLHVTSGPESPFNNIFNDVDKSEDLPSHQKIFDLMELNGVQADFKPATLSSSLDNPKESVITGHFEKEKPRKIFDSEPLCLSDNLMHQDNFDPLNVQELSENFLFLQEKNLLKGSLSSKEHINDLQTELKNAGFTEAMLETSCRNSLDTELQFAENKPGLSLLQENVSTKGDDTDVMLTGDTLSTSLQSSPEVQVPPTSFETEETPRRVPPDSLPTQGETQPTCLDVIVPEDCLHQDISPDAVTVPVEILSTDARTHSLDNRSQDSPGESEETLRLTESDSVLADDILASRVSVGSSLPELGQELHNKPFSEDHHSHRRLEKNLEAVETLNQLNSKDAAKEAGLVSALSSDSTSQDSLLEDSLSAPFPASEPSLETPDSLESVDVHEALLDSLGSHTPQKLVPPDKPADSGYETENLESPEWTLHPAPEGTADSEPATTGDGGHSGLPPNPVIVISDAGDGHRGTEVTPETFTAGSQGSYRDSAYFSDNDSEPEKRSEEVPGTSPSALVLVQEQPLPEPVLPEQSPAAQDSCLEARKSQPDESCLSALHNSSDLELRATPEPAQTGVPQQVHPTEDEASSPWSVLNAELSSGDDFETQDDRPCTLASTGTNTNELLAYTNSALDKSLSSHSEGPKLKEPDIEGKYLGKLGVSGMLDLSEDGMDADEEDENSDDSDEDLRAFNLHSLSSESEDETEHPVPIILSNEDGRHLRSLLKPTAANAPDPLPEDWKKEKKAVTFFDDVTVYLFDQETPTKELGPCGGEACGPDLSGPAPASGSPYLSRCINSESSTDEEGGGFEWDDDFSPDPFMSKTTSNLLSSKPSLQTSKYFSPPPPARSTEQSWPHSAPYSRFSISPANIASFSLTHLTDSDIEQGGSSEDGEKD
UniProt P07948: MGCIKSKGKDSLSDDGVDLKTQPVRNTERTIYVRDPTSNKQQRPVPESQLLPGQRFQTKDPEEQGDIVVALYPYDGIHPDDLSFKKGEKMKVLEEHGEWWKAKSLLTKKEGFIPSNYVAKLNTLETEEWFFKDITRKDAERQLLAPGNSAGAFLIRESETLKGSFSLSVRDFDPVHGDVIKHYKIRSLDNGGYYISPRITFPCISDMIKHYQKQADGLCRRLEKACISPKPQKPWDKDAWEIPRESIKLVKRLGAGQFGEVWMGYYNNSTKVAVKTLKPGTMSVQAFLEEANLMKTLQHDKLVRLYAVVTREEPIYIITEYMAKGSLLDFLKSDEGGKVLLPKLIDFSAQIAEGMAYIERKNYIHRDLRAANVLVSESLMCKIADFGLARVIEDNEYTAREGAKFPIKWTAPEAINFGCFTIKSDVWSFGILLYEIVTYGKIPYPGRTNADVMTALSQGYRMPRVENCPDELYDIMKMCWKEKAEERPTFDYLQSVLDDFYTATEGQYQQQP
UniProt Q12851: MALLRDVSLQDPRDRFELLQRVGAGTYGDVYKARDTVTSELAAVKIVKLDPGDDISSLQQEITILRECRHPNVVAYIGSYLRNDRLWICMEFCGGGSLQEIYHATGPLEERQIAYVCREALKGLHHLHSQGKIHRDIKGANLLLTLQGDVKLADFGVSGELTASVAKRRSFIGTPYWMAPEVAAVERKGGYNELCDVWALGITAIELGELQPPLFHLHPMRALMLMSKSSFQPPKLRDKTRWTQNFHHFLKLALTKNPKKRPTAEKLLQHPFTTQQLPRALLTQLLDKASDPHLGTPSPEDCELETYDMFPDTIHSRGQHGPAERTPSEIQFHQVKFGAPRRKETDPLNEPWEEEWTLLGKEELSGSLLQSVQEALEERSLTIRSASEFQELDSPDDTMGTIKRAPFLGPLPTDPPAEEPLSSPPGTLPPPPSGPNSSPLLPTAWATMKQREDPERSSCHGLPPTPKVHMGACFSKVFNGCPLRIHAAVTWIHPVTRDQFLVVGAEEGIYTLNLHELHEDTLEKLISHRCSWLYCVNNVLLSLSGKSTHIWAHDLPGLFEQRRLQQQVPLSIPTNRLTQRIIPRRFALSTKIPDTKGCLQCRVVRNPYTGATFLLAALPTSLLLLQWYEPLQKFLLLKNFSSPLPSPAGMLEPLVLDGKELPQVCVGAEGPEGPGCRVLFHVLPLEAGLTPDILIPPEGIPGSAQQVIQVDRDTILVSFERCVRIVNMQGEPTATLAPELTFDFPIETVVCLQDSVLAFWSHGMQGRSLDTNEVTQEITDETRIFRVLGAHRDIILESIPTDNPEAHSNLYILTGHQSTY

Tests used:
Experiment in all cases: kinase-Nluc reporter destabilization hit call (1 = scored as downregulated) (binary); higher = compound decreases kinase abundance
Details in all cases: K562; 2-18 h
IRAK3 = IRAK3 (UniProt Q9Y616)
JAK1 = JAK1 (UniProt P23458)
LCK = LCK (UniProt P06239)
LIMK1 = LIMK1 (UniProt P53667)
LIMK2 = LIMK2 (UniProt P53671)
LMTK2 = LMTK2 (UniProt Q8IWU2)
LYN = LYN (UniProt P07948)
MAP2K1 = MAP2K1 (UniProt Q02750)
MAP2K2 = MAP2K2 (UniProt P36507)
MAP4K2 = MAP4K2 (UniProt Q12851)

Measured: kinase-Nluc reporter destabilization hit call

CN1CCC(CNc2ccc3ncc(-c4cccc(OC(F)(F)F)c4)n3n2)CC1 (2.5 µM)
inactive: IRAK3 = 0 | JAK1 = 0 | LCK 0 | LIMK1 = 0 | LIMK2 = 0 | LMTK2 = 0 | LYN 0 | MAP2K1 = 0 | MAP2K2 = 0 | MAP4K2 = 0

CCN(CC)CCCC(C)Nc1nc(C)cc(Nc2ccc3nc(C)cc(N)c3c2)n1 (stereo not given) (10 µM)
inactive: IRAK3 = 0 | JAK1 = 0 | LCK 0 | LIMK1 = 0 | LIMK2 = 0 | LMTK2 = 0 | LYN 0 | MAP2K1 = 0 | MAP2K2 = 0 | MAP4K2 = 0

CC1=C(C(=O)Nc2cc3cn[nH]c3cc2F)C(c2ccc(C(F)(F)F)cc2)CC(=O)N1 (stereo not given) (10 µM)
inactive: IRAK3 = 0 | JAK1 = 0 | LCK 0 | LIMK1 = 0 | LIMK2 = 0 | LMTK2 = 0 | LYN 0 | MAP2K1 = 0 | MAP2K2 = 0 | MAP4K2 = 0

O=C1NC(=O)/C(=C\c2c[nH]c(=O)c(-c3ccc(N4CCNCC4)nc3)c2)S1 [Protein kinase inhibitors 1 hydrochloride] (10 µM)
inactive: IRAK3 = 0 | JAK1 = 0 | LCK 0 | LIMK1 = 0 | LIMK2 = 0 | LMTK2 = 0 | LYN 0 | MAP2K1 = 0 | MAP2K2 = 0 | MAP4K2 = 0

N#Cc1ccc2ncnc(NCCc3ccccc3)c2c1 [Senexin A] (10 µM)
inactive: IRAK3 = 0 | JAK1 = 0 | LCK 0 | LIMK1 = 0 | LIMK2 = 0 | LMTK2 = 0 | LYN 0 | MAP2K1 = 0 | MAP2K2 = 0 | MAP4K2 = 0

Nc1ncc(-c2ccnc(Nc3ccncc3)n2)c(CC2CC2)n1 (10 µM)
inactive: IRAK3 = 0 | JAK1 = 0 | LCK 0 | LIMK1 = 0 | LIMK2 = 0 | LMTK2 = 0 | LYN 0 | MAP2K1 = 0 | MAP2K2 = 0 | MAP4K2 = 0

Nc1nc(N)c2nc(-c3cccc(O)c3)c(-c3cccc(O)c3)nc2n1 (10 µM)
inactive: IRAK3 = 0 | JAK1 = 0 | LCK 0 | LIMK1 = 0 | LIMK2 = 0 | LMTK2 = 0 | LYN 0 | MAP2K1 = 0 | MAP2K2 = 0 | MAP4K2 = 0

Cc1ccc(-n2nc(C(C)(C)C)cc2NC(=O)Nc2ccc(OCCN3CCOCC3)cc2)cc1 (10 µM)
inactive: IRAK3 = 0 | JAK1 = 0 | LCK 0 | LIMK1 = 0 | LIMK2 = 0 | LMTK2 = 0 | LYN 0 | MAP2K1 = 0 | MAP2K2 = 0 | MAP4K2 = 0

COc1ccc(Nc2ncc(C(F)(F)F)c(NC3CC3)n2)cc1OC (10 µM)
inactive: IRAK3 = 0 | JAK1 = 0 | LCK 0 | LIMK1 = 0 | LIMK2 = 0 | LMTK2 = 0 | LYN 0 | MAP2K1 = 0 | MAP2K2 = 0 | MAP4K2 = 0

C=CC(=O)Nc1cccc(Oc2nc(Nc3ccc(N4CCN(C)CC4)c(F)c3)nc3[nH]ccc23)c1 [Avitinib (maleate)] (2.5 µM)
inactive: IRAK3 = 0 | JAK1 = 0 | LCK 0 | LIMK1 = 0 | LIMK2 = 0 | LMTK2 = 0 | LYN 0 | MAP2K1 = 0 | MAP2K2 = 0 | MAP4K2 = 0

Nc1nc(NCCNc2ncc(-n3ccnc3)c(-c3ccc(Cl)cc3Cl)n2)ccc1[N+](=O)[O-] (2.5 µM)
inactive: IRAK3 = 0 | JAK1 = 0 | LCK 0 | LIMK1 = 0 | LIMK2 = 0 | LMTK2 = 0 | LYN 0 | MAP2K1 = 0 | MAP2K2 = 0 | MAP4K2 = 0

O=C(Nc1cccc(-c2nc(-c3ccc(NC(=O)c4cccnc4)cc3Cl)no2)c1)Nc1ccc(NC(=O)C2CC2)c(C(F)(F)F)c1 (2.5 µM)
inactive: IRAK3 = 0 | JAK1 = 0 | LCK 0 | LIMK1 = 0 | LIMK2 = 0 | LMTK2 = 0 | LYN 0 | MAP2K1 = 0 | MAP2K2 = 0 | MAP4K2 = 0

CN(C)c1ccc(-c2nc3ncc(Cl)c(N4CCN(CC(=O)Nc5nccs5)CC4)c3[nH]2)cc1 (2 µM)
inactive: IRAK3 = 0 | JAK1 = 0 | LCK 0 | LIMK1 = 0 | LIMK2 = 0 | LMTK2 = 0 | LYN 0 | MAP2K1 = 0 | MAP2K2 = 0 | MAP4K2 = 0

CCCCCc1ccc(/C=C/[C@H](O)[C@@H](CO)NC)cc1 [SK1-I (hydrochloride)] (10 µM)
inactive: IRAK3 = 0 | JAK1 = 0 | LCK 0 | LIMK1 = 0 | LIMK2 = 0 | LMTK2 = 0 | LYN 0 | MAP2K1 = 0 | MAP2K2 = 0 | MAP4K2 = 0

c1nn(C2CCOCC2)cc1Nc1ncc2nnn(-c3ccc4cn[nH]c4c3)c2n1 (10 µM)
inactive: IRAK3 = 0 | JAK1 = 0 | LCK 0 | LIMK1 = 0 | LIMK2 = 0 | LMTK2 = 0 | LYN 0 | MAP2K1 = 0 | MAP2K2 = 0 | MAP4K2 = 0

COc1ccc(-c2cc(=O)c3c(OC)cc(OC)c(OC)c3o2)cc1 [6-Demethoxytangeretin] (10 µM)
inactive: IRAK3 = 0 | JAK1 = 0 | LCK 0 | LIMK1 = 0 | LIMK2 = 0 | LMTK2 = 0 | LYN 0 | MAP2K1 = 0 | MAP2K2 = 0 | MAP4K2 = 0

Nc1ncnc2c1nc(Br)n2[C@@H]1O[C@@H]2COP(=O)(O)O[C@H]2[C@H]1O [8-Bromo-cAMP sodium salt] (10 µM)
inactive: IRAK3 = 0 | JAK1 = 0 | LCK 0 | LIMK1 = 0 | LIMK2 = 0 | LMTK2 = 0 | LYN 0 | MAP2K1 = 0 | MAP2K2 = 0 | MAP4K2 = 0

Seven neighbouring entries from above, for reference:
Nc1ncc(-c2ccnc(Nc3ccncc3)n2)c(CC2CC2)n1 (10 µM)
inactive: IRAK3 = 0 | JAK1 = 0 | LCK 0 | LIMK1 = 0 | LIMK2 = 0 | LMTK2 = 0 | LYN 0 | MAP2K1 = 0 | MAP2K2 = 0 | MAP4K2 = 0

Nc1nc(N)c2nc(-c3cccc(O)c3)c(-c3cccc(O)c3)nc2n1 (10 µM)
inactive: IRAK3 = 0 | JAK1 = 0 | LCK 0 | LIMK1 = 0 | LIMK2 = 0 | LMTK2 = 0 | LYN 0 | MAP2K1 = 0 | MAP2K2 = 0 | MAP4K2 = 0

Cc1ccc(-n2nc(C(C)(C)C)cc2NC(=O)Nc2ccc(OCCN3CCOCC3)cc2)cc1 (10 µM)
inactive: IRAK3 = 0 | JAK1 = 0 | LCK 0 | LIMK1 = 0 | LIMK2 = 0 | LMTK2 = 0 | LYN 0 | MAP2K1 = 0 | MAP2K2 = 0 | MAP4K2 = 0

COc1ccc(Nc2ncc(C(F)(F)F)c(NC3CC3)n2)cc1OC (10 µM)
inactive: IRAK3 = 0 | JAK1 = 0 | LCK 0 | LIMK1 = 0 | LIMK2 = 0 | LMTK2 = 0 | LYN 0 | MAP2K1 = 0 | MAP2K2 = 0 | MAP4K2 = 0

C=CC(=O)Nc1cccc(Oc2nc(Nc3ccc(N4CCN(C)CC4)c(F)c3)nc3[nH]ccc23)c1 [Avitinib (maleate)] (2.5 µM)
inactive: IRAK3 = 0 | JAK1 = 0 | LCK 0 | LIMK1 = 0 | LIMK2 = 0 | LMTK2 = 0 | LYN 0 | MAP2K1 = 0 | MAP2K2 = 0 | MAP4K2 = 0

Nc1nc(NCCNc2ncc(-n3ccnc3)c(-c3ccc(Cl)cc3Cl)n2)ccc1[N+](=O)[O-] (2.5 µM)
inactive: IRAK3 = 0 | JAK1 = 0 | LCK 0 | LIMK1 = 0 | LIMK2 = 0 | LMTK2 = 0 | LYN 0 | MAP2K1 = 0 | MAP2K2 = 0 | MAP4K2 = 0

O=C(Nc1cccc(-c2nc(-c3ccc(NC(=O)c4cccnc4)cc3Cl)no2)c1)Nc1ccc(NC(=O)C2CC2)c(C(F)(F)F)c1 (2.5 µM)
inactive: IRAK3 = 0 | JAK1 = 0 | LCK 0 | LIMK1 = 0 | LIMK2 = 0 | LMTK2 = 0 | LYN 0 | MAP2K1 = 0 | MAP2K2 = 0 | MAP4K2 = 0

Further entries

Cc1cnc(NC(=O)c2cc(Oc3cnc(C(=O)N(C)C)nc3)c3cc(C)oc3c2)cn1 (10 µM)
inactive: IRAK3 = 0 | JAK1 = 0 | LCK 0 | LIMK1 = 0 | LIMK2 = 0 | LMTK2 = 0 | LYN 0 | MAP2K1 = 0 | MAP2K2 = 0 | MAP4K2 = 0

Cc1cc(C(=O)Nc2nc3cccc(Cl)c3n2[C@@H]2CCCCN(C(=O)/C=C/CN(C)C)C2)ccn1 [Nazartinib] (10 µM)
inactive: IRAK3 = 0 | JAK1 = 0 | LCK 0 | LIMK1 = 0 | LIMK2 = 0 | LMTK2 = 0 | LYN 0 | MAP2K1 = 0 | MAP2K2 = 0 | MAP4K2 = 0

O=c1[nH]ccc2nc(-c3ccc(CN4CCC(c5nc(-c6ccccn6)n[nH]5)CC4)cc3)c(-c3ccccc3)cc12 (10 µM)
inactive: IRAK3 = 0 | JAK1 = 0 | LCK 0 | LIMK1 = 0 | LIMK2 = 0 | LMTK2 = 0 | LYN 0 | MAP2K1 = 0 | MAP2K2 = 0 | MAP4K2 = 0

COC(=O)/C=C/c1ccccc1 [Methyl cinnamate] (10 µM)
inactive: IRAK3 = 0 | JAK1 = 0 | LCK 0 | LIMK1 = 0 | LIMK2 = 0 | LMTK2 = 0 | LYN 0 | MAP2K1 = 0 | MAP2K2 = 0 | MAP4K2 = 0

COC(=O)Nc1ccc(-c2nc(N3CCOCC3)c3cnn(C4CCN(Cc5cccnc5)CC4)c3n2)cc1 (10 µM)
inactive: IRAK3 = 0 | JAK1 = 0 | LCK 0 | LIMK1 = 0 | LIMK2 = 0 | LMTK2 = 0 | LYN 0 | MAP2K1 = 0 | MAP2K2 = 0 | MAP4K2 = 0

N#C/C(=C\c1ccc(O)c(O)c1)C(=O)O [Tyrphostin AG30] (10 µM)
inactive: IRAK3 = 0 | JAK1 = 0 | LCK 0 | LIMK1 = 0 | LIMK2 = 0 | LMTK2 = 0 | LYN 0 | MAP2K1 = 0 | MAP2K2 = 0 | MAP4K2 = 0

CO[C@H]1C[C@@H]2CC[C@@H](C)[C@@](O)(O2)C(=O)C(=O)N2CCCC[C@H]2C(=O)O[C@H]([C@H](C)C[C@@H]2CC[C@@H](OCCO)[C@H](OC)C2)CC(=O)[C@H](C)/C=C(\C)[C@@H](O)[C@@H](OC)C(=O)[C@H](C)C[C@H](C)/C=C/C=C/C=C/1C [Everolimus] (10 µM)
inactive: IRAK3 = 0 | JAK1 = 0 | LCK 0 | LIMK1 = 0 | LIMK2 = 0 | LMTK2 = 0 | LYN 0 | MAP2K1 = 0 | MAP2K2 = 0 | MAP4K2 = 0

CCCCCC(=O)N[C@@H](Cc1ccc(O)cc1)C(=O)OC (10 µM)
inactive: IRAK3 = 0 | JAK1 = 0 | LCK 0 | LIMK1 = 0 | LIMK2 = 0 | LMTK2 = 0 | LYN 0 | MAP2K1 = 0 | MAP2K2 = 0 | MAP4K2 = 0

COc1cc2c(cc1Nc1ncc(C(N)=O)c(Nc3c(F)cccc3C(F)(F)F)n1)CN(C)CC2 (2.5 µM)
inactive: IRAK3 = 0 | JAK1 = 0 | LCK 0 | LIMK1 = 0 | LIMK2 = 0 | LMTK2 = 0 | LYN 0 | MAP2K1 = 0 | MAP2K2 = 0 | MAP4K2 = 0
